# Data source: PubChem BioAssay AID504764 (Drosophila RNAi Screening Center, 2011)
# Aim: 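Knock-downs that raise or lower a Notch target reporter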 (primary screen)
# Cell system: Drosophila Kc167 cells
# Knock-down reagent: long dsRNA against Drosophila genes
# Time to read-out: about 5 days (4 days dsRNA, then 24 h after transfection)
# Challenge: transfection of constitutively active membrane-tethered Notch lacking the extracellular domain, read 24 h later
# Detection: 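Firefly luciferase from an E(spl)m3 reporter with active Notch, plus control-promoter and uninduced reporter wells for normalisation; unnormalised counts, duplicate wells a and b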
# Scale: induced reporter light, run 1, well a and induced reporter light, run 1, well b: higher = more light from the Notch target reporter with active Notch; control promoter light, run 1, well a and control promoter light, run 1, well b: higher = more light from the viral control promoter (cell number, transfection, viability); uninduced reporter light, run 1, well a: higher = more light from the Notch target reporter without active Notch
# Active means: 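Hit if the duplicate-averaged log2 ratio of induced to control-promoter light gives a plate-wise z beyond ±2, or induced to uninduced beyond ±1.8; weak-control or discordant-duplicate wells dropped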
# Meaning of the calls: active = modifier hit (raised or lowered Notch signal); inactive = not a hit
# In all, the deposit lists about 22,000 reagents; shown is an unselected part of those with a known target gene and a result. In the full data, 403 (1.9%) got an active call. 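Unnormalised raw counts per well; ratio z-scores behind the hit calls and whether each hit raises or lowers signal are not deposited.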 Names joined by + are all predicted targets of the reagent. No sequences are given here. Not given: the amount of reagent.
Gene,dsRNA,"induced reporter light, run 1, well a","induced reporter light, run 1, well b","control promoter light, run 1, well a","control promoter light, run 1, well b","uninduced reporter light, run 1, well a",Call
CG4681,DRSC04481,1.46e5,1.32e5,1.41e5,1.57e5,8450,inactive
chb,DRSC11469,1.86e5,1.85e5,2.68e5,2.31e5,15560,inactive
RhoGAP93B,DRSC15488,1.62e5,1.39e5,1.60e5,1.71e5,12615,inactive
mAChR-C,DRSC17890,1.34e5,1.19e5,2.08e5,2.57e5,10685,inactive
CG4734,DRSC06885,1.20e5,92975,1.22e5,95555,8738,inactive
St4,DRSC07008,77415,65390,1.14e5,1.04e5,7782,inactive
Vap33,DRSC18384,1.88e5,1.80e5,2.69e5,2.72e5,13685,inactive
Ance-5,DRSC04055,2.51e5,2.52e5,2.27e5,2.13e5,17955,inactive
Regnase-1,DRSC14278,1.19e5,1.23e5,1.45e5,1.61e5,11540,inactive
CG15221,DRSC19659,1.27e5,1.61e5,2.10e5,2.60e5,9365,inactive
CG14194,DRSC19549,81270,71885,88980,1.03e5,9175,inactive
Cpr12A,DRSC19722,1.28e5,1.17e5,1.51e5,2.12e5,8845,inactive
CG18473,DRSC16381,1.04e5,86865,90730,1.09e5,4510,inactive
Mics1,DRSC12537,75505,92265,1.02e5,53920,6700,inactive
CCHa2,DRSC14835,2.42e5,2.72e5,2.29e5,2.59e5,22020,inactive
fbp,DRSC02077,1.95e5,1.88e5,1.50e5,1.71e5,15670,inactive
CG8539,DRSC10988,1.28e5,1.34e5,70200,31760,8475,active
CR31032,DRSC22457,,,,,,inactive
CG42336,DRSC05273,1.60e5,2.02e5,2.44e5,2.60e5,21180,inactive
CG42336,DRSC06332,1.07e5,1.33e5,1.42e5,1.51e5,10865,inactive
CG42336,DRSC06333,1.14e5,1.20e5,1.35e5,1.36e5,11200,inactive

Targets above whose target name begins with R or r (2):
Gene,dsRNA,"induced reporter light, run 1, well a","induced reporter light, run 1, well b","control promoter light, run 1, well a","control promoter light, run 1, well b","uninduced reporter light, run 1, well a",Call
RhoGAP93B,DRSC15488,1.62e5,1.39e5,1.60e5,1.71e5,12615,inactive
Regnase-1,DRSC14278,1.19e5,1.23e5,1.45e5,1.61e5,11540,inactive

Further entries follow.
Gene,dsRNA,"induced reporter light, run 1, well a","induced reporter light, run 1, well b","control promoter light, run 1, well a","control promoter light, run 1, well b","uninduced reporter light, run 1, well a",Call
lili,DRSC14143,1.85e5,1.79e5,1.98e5,2.05e5,13020,inactive
Grx3,DRSC02966,1.90e5,1.98e5,1.31e5,1.52e5,14930,inactive
jbug,DRSC03952,83365,71580,95385,96985,7710,inactive
jbug,DRSC04114,2.05e5,2.01e5,1.37e5,1.63e5,12992,inactive
jbug,DRSC04167,1.46e5,1.77e5,1.84e5,1.23e5,11860,inactive
jbug,DRSC04388,2.42e5,2.34e5,2.13e5,1.95e5,18930,inactive
Gen,DRSC09679,1.16e5,1.15e5,74935,46700,11092,inactive
ple,DRSC11383,1.65e5,1.59e5,1.68e5,1.83e5,10450,inactive
Shrm,DRSC06437,37115,32365,35885,34390,5955,inactive
Shrm,DRSC06438,91765,80735,1.17e5,1.04e5,9310,inactive
Shrm,DRSC07221,31370,26255,24435,26035,2625,inactive
CG11889 + CG11891,DRSC14426,1.44e5,1.46e5,1.74e5,1.83e5,12235,inactive
CG11889 + CG11891,DRSC14427,1.19e5,1.27e5,1.75e5,1.69e5,11480,inactive
CG11837,DRSC14397,1.99e5,2.29e5,3.08e5,2.88e5,13620,inactive
CG31556 (retired record),DRSC12122,1.29e5,1.44e5,1.55e5,98970,12460,inactive
jar,DRSC16974,1.98e5,1.99e5,2.22e5,2.17e5,16492,inactive
CG5321,DRSC19940,74255,61385,87735,91640,11335,inactive
nrm,DRSC11597,2.14e5,2.01e5,3.46e5,3.33e5,16845,inactive
nrm,DRSC11599,2.33e5,2.21e5,3.16e5,2.45e5,23410,inactive
nrm,DRSC11897,87125,82560,94615,77625,7190,inactive
Or47a,DRSC07491,1.16e5,1.01e5,1.46e5,1.19e5,9978,inactive
peg,DRSC15216,1.95e5,1.56e5,1.97e5,1.98e5,13360,inactive
Rgk3,DRSC04250,45840,48915,51460,43940,2350,inactive
Rgk3,DRSC04251,53945,46470,45340,72010,2335,inactive
Rgk3,DRSC04254,56055,48180,51135,44185,2428,inactive
Rgk3,DRSC04255,51675,40120,50130,40305,2685,inactive
Polr3C,DRSC14490,88425,93690,73740,69350,9435,inactive
mesh,DRSC14472,1.76e5,1.59e5,2.73e5,2.52e5,12800,inactive
mesh,DRSC15098,1.31e5,1.59e5,2.06e5,1.71e5,12160,inactive
mesh,DRSC15099,1.02e5,1.05e5,1.51e5,1.47e5,9520,inactive
